# According to paper PMC12040169 (PLOS Biology, 2025):
# Some of the results follow.
# Tested on: T1, CTL2-GFP (C. trachomatis L2/434/Bu, GFP-expressing)
# T1 construct: L2/434/Bu, GFP-expressing
# Set-up: species or system HeLa; Intracellular C. trachomatis growth in HeLa cells, bulk GFP fluorescence relative to DMSO
# Settings: bulk GFP, single well; 28.5 h, 10 µM; inhibitor
row,Structure (SMILES),% of control remaining [%]
1,Cc1nc2c(c(=O)[nH]1)CCN(C(=O)c1cc(C3CC3)oc1C)C2 [CBK283753],106.594
2,CCOc1ccc(-c2c3c(c(-c4ccccc4)n2-c2ccc(N)cc2)C(=O)c2ccccc2C3=O)cc1 [CBK262685],100.67
3,CCN1CCN(C(=O)CN(C)S(=O)(=O)c2ccc(OC)c(C)c2)CC1 [CBK268880],76.0834
4,CCc1nn(CC(=O)NC2CCCC2)c(=O)c2cc3sccc3n12 [CBK284077],126.597
5,O=C(O)CC(NC(=O)C(c1ccccc1)c1ccccc1)c1ccco1 (centres unmarked) [CBK268729],142.805
6,Cc1cccc(/C=C2/SC(=S)N(CC(=O)O)C2=O)n1 [CBK265146],131.32
7,COc1ccccc1N1CCN(C2CCN(Cc3ccc([N+](=O)[O-])cc3)CC2)CC1 [CBK264734G],108.441
8,Cc1n[nH]c(C)c1Sc1ccccc1/N=C/c1ccc([N+](=O)[O-])cc1 [CBK262045],100
9,COc1ccc(C2C(C(=O)c3ccccc3)=C(O)C(=O)N2CCN(C)C)cc1OC (centres unmarked) [CBK263352],103.082
10,CCC(CC)C(=O)N1CCN(Cc2ccccc2)CCC1=O [CBK284830],115.688
11,COc1ccc2c(c1)OC1(CCN(C(=O)C3CCCC3)CC1)CC2O (centres unmarked) [CBK286400],125.77
12,O=C(CN1C(=O)COc2ccccc21)NC1CC1 [CBK270261],143.027
13,CCC(C)(NC(=O)c1ccn(-c2cc(C)ccc2OC)n1)C(=O)OC (centres unmarked) [CBK305282],115.064
14,Clc1cccc(Nc2nc(Br)cn3ccnc23)c1 [CBK066260],88.2311
15,CCC(=O)NC1Cc2cccc3c2N(CCC3)C1=O (centres unmarked) [CBK010667],74.7448
16,CSCCC(=O)N1CCN(c2ncccn2)CC1 [CBK144509],109.598
17,COc1ccccc1OCc1cc(C)c(C(=O)N2CCN(C)CC2c2ccccc2)o1 (centres unmarked) [CBK286273],102.237
18,Clc1ccccc1OCCNC1CCc2[nH]c3ccccc3c2C1 (centres unmarked) [CBK107790],106.311
19,COc1ccc(NC(=O)CSc2cnn[nH]2)cc1OC [CBK270010],73.8589
20,O=C(NC(c1ccc2c(c1)CCO2)[C@H]1C[C@@H](O)C1)c1c[nH]c(=O)c(Cl)c1 (some centres unmarked) [CBK306634],137.42
21,CCN1CC2(CCC1=O)CCN(Cc1cccc(C(C)N(C)C)c1)CC2 (centres unmarked) [CBK307250],96.2205
22,CN(Cc1nc2c(s1)CCCC2)C(=O)COc1ccc2nncn2n1 [CBK306758],85.3195
23,O=C(O)CCc1ccc(-c2ccc(F)cc2)n1Cc1ccco1 [CBK265953],100
24,COc1ccc2c(-c3ccccc3)cc(=O)n(CCS(=O)(=O)Oc3ccccc3)c2c1 [CBK296621],119.456
25,Cc1ccc(-c2nc3ncccc3o2)cc1NC(=O)c1ccc(F)cc1 [CBK263043],106.707
26,COc1ccc(Nc2ncnc3c2c(C)c(C)n3CCO)cc1 [CBK288161],120.134
27,Cn1cc(-c2nccnc2OCCn2cccc2)cn1 [CBK107079],100

row,Structure (SMILES),% of control remaining [%]
1,O=C(NCCO)C1CCCN(S(=O)(=O)c2ccc3ccccc3c2)C1 (centres unmarked) [CBK270090],108.142
2,CN(C)C(c1ccccc1)c1nnnn1C1CCCCC1 (centres unmarked) [CBK028032],102.464
3,Fc1ccc(OCCN2CCC3(C2)OCCc2c3[nH]c3ccccc23)cc1 (centres unmarked) [CBK061787],100.782
4,C(=N\n1cnnc1)/c1ccccc1OCc1cccc2ccccc12 [CBK263864],145.842
5,COc1cc(-c2ccc(/N=C/c3ccccc3O)c(OC)c2)ccc1/N=C/c1ccccc1O [CBK261089],100
6,O=C(CN1C(=O)c2ccccc2C1=O)NCc1ccc(C(=O)O)cc1 [CBK262795],100
7,Cc1cccc(NC(=O)NCc2ccccn2)c1 [CBK269422],128.989
8,CC(CCN(C)CCN(C)C)c1ccccc1 (centres unmarked) [CBK261871],120.768
9,COc1ccc(CN2C(=O)CC(C(=O)O)S/C2=N\c2ccc(Cl)cc2)cc1 (centres unmarked) [CBK287259],122.416
10,COc1ccccc1C1(CCNCc2ccc3c(c2)OCO3)CCOC(C)(C)C1 (centres unmarked) [CBK265599G],106.717
11,CCN1CCCCC1CNC(=O)Cn1nc(C)c(C)c1C (centres unmarked) [CBK282208],125.503
12,CN1C[C@@H](NS(=O)(=O)c2ccc(C#N)cc2)C[C@H]1c1nc(-c2ccncc2)no1 [CBK288871],108.315
13,C=C(C)CN1CCN(C(=O)CSc2nccc3ccccc23)CC1 [CBK282712],145.007
14,O=C(NC1CCCC1)c1ccc2ncccc2c1 [CBK200118],115.43
15,CN1CCN(C(=O)c2ccc3nc(-c4ccccc4)c(-c4ccccc4)nc3c2)CC1 [CBK267257],102.835
16,O=C(CN1CCCC1c1ccc(Nc2ccc(F)cn2)cn1)Nc1ccc(F)cc1 (centres unmarked) [CBK285941],85.8678
17,Cn1cc(CN2CCOC(c3nc(C(C)(C)C)cs3)C2)nn1 (centres unmarked) [CBK304783],117.103
18,Cc1cc(C(=O)Nc2nncs2)c2ccc(F)cc2n1 [CBK297738],130.36
19,Cc1nc(C)n(CC2CCCN(Cc3nc4ccccc4o3)C2)n1 (centres unmarked) [CBK305828],118.131
20,COc1ccc(NC(=O)CS(=O)(=O)Cc2ccccc2)c([N+](=O)[O-])c1 [CBK266748],127.584
21,Cc1cc(C)n(C(C)CNC(=O)C(C)n2ccnc2)n1 (centres unmarked) [CBK282049],101.821
22,O=C(c1cscn1)N1CCC(Cc2ccccc2)CC1 [CBK200188],58.339
23,CCc1cc(C(=O)NC(CCn2ccnc2)c2ccccc2)cc(=O)[nH]1 (centres unmarked) [CBK306679],107.715
24,N=c1n(CC(=O)c2ccc(-c3ccccc3)cc2)c2ccccc2n1Cc1ccccc1 [CBK262128B],95.7583
25,O=C(CSc1nc2ccccc2nc1N1CCCC1)N1CCN(c2ccccc2)CC1 [CBK293977],154.058
26,CC(=O)c1ccc(N2CCN(S(=O)(=O)c3ccc(O)c(C(=O)O)c3)CC2)cc1 [CBK296961],143.998
27,Cc1cc(-c2nnc(NCc3ccnn3C)o2)c(C)o1 [CBK306446],117.849

row,Structure (SMILES),% of control remaining [%]
1,O=C(O)c1ccc2c(c1)c(C(C(=O)O)N1CCCC1)cn2Cc1ccccc1 (centres unmarked) [CBK286633],88.4183
2,COc1ccc(CN2CCC(N3CCN(c4ccccc4F)CC3)CC2)cc1OCc1ccccc1 [CBK264720G],127.117
3,O=C1C[C@H]2[C@H](CC3(SCCS3)[C@@H]2CO)O1 [CBK006615],122.872
4,CC1=C[C@@H](CO)[C@H](C(C)C)C[C@H]1Cc1nnc(Cc2c[nH]c3ccccc23)o1 [CBK289223],117.949
5,Fc1cc(Br)ccc1COc1cccnc1Cl [CBK161281],119.736
6,NC1=C2NN(c3ccc(Cl)cc3Cl)N=C2N(c2ccccc2)N1 [CBK107773],61.8957
7,Fc1cccc(-c2nccnc2NCCc2ccncc2)c1 [CBK036763],171.914
8,CC(C)[C@H](NC(=O)c1cc2cc(Cl)ccc2n1C)C(=O)N1CCC(C(=O)O)CC1 [CBK286771],102.119
9,CCC1CCCCN1S(=O)(=O)c1cccc2c(S(=O)(=O)N3CCCCC3CC)cccc12 (centres unmarked) [CBK262073],119.28
10,O=C1Nc2ccc(Br)cc2C(=O)N2CCNC[C@H]12 [CBK289583],140.971
11,CCOC(=O)CN1CCCN(c2ccnc(OC3CCCCC3)n2)CC1 [CBK083864],129.233
12,Cc1ccc(NCC2CCN(c3cc(=O)n4oc(C)cc4n3)C2)nc1 (centres unmarked) [CBK305827],135.527
13,CCCn1cnnc1C(C)NC(=O)N(C)Cc1nc2cccc(C)c2[nH]1 (centres unmarked) [CBK307551],105.938
14,c1ccc(Oc2nc3ccccc3n3cnnc23)cc1 [CBK287945],168.111
15,CCOC(=O)c1cnc2ccc(OC)cc2c1NCCN1CCOCC1 [CBK304199],107.845
16,CCn1c(Cc2ccccc2)nnc1SCC(=O)Nc1cc(Cl)ccc1O [CBK268689],91.5718
17,Cc1nccn1CCCNC(=O)c1cccc(N2CCCCC2)c1 [CBK281646],118.268
18,OCCN1CCN(Cc2cc(Br)cs2)CC1 [CBK261758],100
19,Cc1oc2nc(SCC(=O)NCc3cccnc3)nc(N)c2c1C [CBK266178],113.183
20,Cc1nc(C)c(C(=O)N2CCC(c3cc4cnccc4[nH]3)CC2)s1 [CBK283432],92.8899
21,O=C(c1cnn(-c2ccccc2)c1)N1CCc2[nH]c3ccccc3c2C1 [CBK281853],150.918
22,CCCN(CC(=O)NCc1ccco1)Cc1nnc(-c2ccco2)o1 [CBK305302],132.865
23,O=S(=O)(CCc1ccccc1)N1CCCn2nc(-c3ccncc3)cc2C1 [CBK288608],103.186
24,Cn1cc(Cl)c(C2CCCCCN2C(=O)c2ccco2)n1 (centres unmarked) [CBK285105],136.138
25,CCc1ccc(CNC(=O)Cn2nnc(-c3ccc(CNCCc4ccc(OC)c(OC)c4)cc3)n2)cc1 [CBK155008T],137.57
26,Cc1n[nH]c2c1C(c1ccc(C(=O)O)cc1)C1=C(COC1=O)N2 (centres unmarked) [CBK286546],125.408

# Taken from the listing (15 entries):
row,Structure (SMILES),% of control remaining [%]
9,COc1ccc(CN2C(=O)CC(C(=O)O)S/C2=N\c2ccc(Cl)cc2)cc1 (centres unmarked) [CBK287259],122.416
10,COc1ccccc1C1(CCNCc2ccc3c(c2)OCO3)CCOC(C)(C)C1 (centres unmarked) [CBK265599G],106.717
11,CCN1CCCCC1CNC(=O)Cn1nc(C)c(C)c1C (centres unmarked) [CBK282208],125.503
12,CN1C[C@@H](NS(=O)(=O)c2ccc(C#N)cc2)C[C@H]1c1nc(-c2ccncc2)no1 [CBK288871],108.315
13,C=C(C)CN1CCN(C(=O)CSc2nccc3ccccc23)CC1 [CBK282712],145.007
14,O=C(NC1CCCC1)c1ccc2ncccc2c1 [CBK200118],115.43
15,CN1CCN(C(=O)c2ccc3nc(-c4ccccc4)c(-c4ccccc4)nc3c2)CC1 [CBK267257],102.835
16,O=C(CN1CCCC1c1ccc(Nc2ccc(F)cn2)cn1)Nc1ccc(F)cc1 (centres unmarked) [CBK285941],85.8678
17,Cn1cc(CN2CCOC(c3nc(C(C)(C)C)cs3)C2)nn1 (centres unmarked) [CBK304783],117.103
18,Cc1cc(C(=O)Nc2nncs2)c2ccc(F)cc2n1 [CBK297738],130.36
19,Cc1nc(C)n(CC2CCCN(Cc3nc4ccccc4o3)C2)n1 (centres unmarked) [CBK305828],118.131
20,COc1ccc(NC(=O)CS(=O)(=O)Cc2ccccc2)c([N+](=O)[O-])c1 [CBK266748],127.584
21,Cc1cc(C)n(C(C)CNC(=O)C(C)n2ccnc2)n1 (centres unmarked) [CBK282049],101.821
22,O=C(c1cscn1)N1CCC(Cc2ccccc2)CC1 [CBK200188],58.339
23,CCc1cc(C(=O)NC(CCn2ccnc2)c2ccccc2)cc(=O)[nH]1 (centres unmarked) [CBK306679],107.715
